{
  "source": "PubChem BioAssay AID1347075",
  "about": "(National Center for Advancing Translational Sciences (NCATS), 2019)",
  "note": "About 5,500 (1.4%) of roughly 400,000 compounds were called active. Inconclusive results, whose numbers are uncertain, are shown with a selection of clear calls. Calls come from the whole dose curve; as a rule, active = well fitted cell-killing curve with a large enough effect; inconclusive = small, poorly fitted or top-dose-only effect, or effect the other way; inactive = flat fitted curve, though single readings scatter. A potency beside an inconclusive call is a rough fit, not a confirmed value. Potency is the fitted concentration of half-maximal effect.",
  "data": [
    {"assay": "qHTS assay for MDR1-selective chemotherapeutics: Primary screen using the parental adenocarcinoma cell KB-3-1; note: nearly all actives have a fitted effect of over 60% in size", "conditions": "KB-3-1 viability, CellTiter-Glo ATP luminescence, 72 h; series mostly up to 46.1 µM", "in_short": "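Parental KB-3-1 adenocarcinoma cells in phenol-red-free DMEM with 10% FBS were pin-treated with compounds at several concentrations, incubated 72 h at 37 °C, and viability read by CellTiter-Glo luminescence; concentration-effect curves were fitted after normalization.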", "values": [
      {"smiles": "CC(C)CN(CC(C)C)c1ccc(/C=C/c2nc3ccccc3s2)cc1", "Potency": "inconclusive: 0.0065 µM [rising, full curve, poor fit]"},
      {"smiles": "CC1CN(c2nc3c(c(=O)n(Cc4ccc(Cl)cc4)c(=O)n3C)n2C)CC(C)O1", "note": "(stereo not drawn)", "Potency": "inconclusive: 16.4 µM [cytotoxic, partial curve]"},
      {"smiles": "C[C@H](NC(=O)c1nc[nH]c1C(=O)NCc1ccc(CNC(=O)OC(C)(C)C)cc1)c1ccccc1", "Potency": "inconclusive: 29.1 µM [cytotoxic, single point]"},
      {"smiles": "CC1CCCCN1CCCNC(=O)c1ccc2c(=O)n(CCc3ccccc3)c(=O)[nH]c2c1", "note": "(stereo not drawn)", "Potency": "inactive"},
      {"smiles": "Cc1ccc(NC(=O)CC(=O)c2ccc([N+](=O)[O-])cc2)cc1S(=O)(=O)Nc1cccc(Cl)c1", "Potency": "inconclusive: 11.6 µM [cytotoxic, partial curve, poor fit]"},
      {"smiles": "COc1ccc(N2CCN(C(=O)c3ccc(CNS(=O)(=O)c4cccc(OC)c4)cc3)CC2)cc1", "Potency": "inconclusive: 32.6 µM [cytotoxic, partial curve, poor fit]"},
      {"smiles": "COc1cc(-c2nnc(SCCOc3ccc(Cl)cc3)o2)cc(OC)c1OC", "Potency": "inactive"},
      {"smiles": "CC(C)c1ccc(NC(=O)COc2nncc3ccccc23)cc1", "Potency": "inconclusive: 29.1 µM [rising, single point]"},
      {"smiles": "CCOc1ccc(OCC)c(NC(=O)CN2CCN(c3cccc(C)c3)CC2)c1", "Potency": "inconclusive: 23.1 µM [cytotoxic, single point]"},
      {"smiles": "S=C(NCc1ccccc1)NCc1cccc(CNC(=S)NCc2ccccc2)c1", "Potency": "inconclusive: 29.1 µM [cytotoxic, single point]"},
      {"smiles": "CCN(CC(=O)Nc1ccccc1OC)CC(=O)Nc1ccccc1C(F)(F)F", "Potency": "inactive"},
      {"smiles": "Cc1ccc(S(=O)(=O)N2CCOCC2)cc1NC(=O)COC(=O)c1ccc2c(c1)OCCO2", "Potency": "inconclusive: 18.4 µM [rising, single point]"},
      {"smiles": "Cc1cc(=O)[nH]c(N/N=C/c2ccccn2)n1", "Potency": "inconclusive: 29.1 µM [cytotoxic, single point]"},
      {"smiles": "CCOC(=O)c1ccccc1NC(=O)c1n[nH]c(=O)c2ccccc12", "Potency": "inconclusive: 29.1 µM [cytotoxic, single point]"},
      {"smiles": "CCOc1ccc(OCC)c(NC(=O)CN2CCN(CC(=O)NC(C)C)CC2)c1", "Potency": "inactive"},
      {"smiles": "C/C(=N\\NC(=S)NCc1ccccc1)c1ccccc1", "Potency": "inactive"},
      {"smiles": "COc1ccc(C(=O)NC(=S)NNC(=O)[C@H]2C[C@@H]2c2ccccc2)cc1OC", "Potency": "inconclusive: 13 µM [cytotoxic, single point]"},
      {"smiles": "COc1ccc(C(=O)NC2CCCc3ccccc32)cc1[N+](=O)[O-]", "note": "(stereo not drawn)", "Potency": "inconclusive: 20.6 µM [cytotoxic, single point]"},
      {"smiles": "Cc1ccc2[nH]c(C)c(/C=C/c3cc[n+](C)cc3)c2c1", "Potency": "active: 2.06 µM"},
      {"smiles": "COC1(OC)N=C(N)C2(C#N)C(c3cccc(Oc4ccccc4)c3)C12C#N", "note": "(stereo not drawn)", "Potency": "inactive"},
      {"smiles": "O=C(NC(=S)Nc1cccc([N+](=O)[O-])c1)C1CCCCC1", "Potency": "inactive"},
      {"smiles": "O=C(NCCN1CCN(c2ccccc2Cl)CC1)Nc1ccccc1", "Potency": "inactive"},
      {"smiles": "C=CCn1c(SCC(=O)Nc2cc(C)c(Cl)cc2OC)nnc1-c1ccco1", "Potency": "inactive"},
      {"smiles": "O=C(CCN1CCOCC1)c1ccc(N2CCCCC2)cc1", "Potency": "inconclusive: 23.1 µM [cytotoxic, partial curve]"},
      {"smiles": "CC(C)c1ccc(N2CC(C)(C)C2=O)cc1", "Potency": "inactive"},
      {"smiles": "CCC[C@H]1COCCS(=O)(=O)N1Cc1ccc(Br)cc1", "Potency": "inconclusive: 16.4 µM [cytotoxic, partial curve, poor fit]"},
      {"smiles": "O=C(CCC1CCCN(C(=O)c2ccc3[nH]ccc3c2)C1)N1CCN(c2ccccn2)CC1", "note": "(stereo not drawn)", "Potency": "inactive"},
      {"smiles": "CC(C)N1CC(O)=C(c2nc3ccccc3c(=O)[nH]2)C1=N", "Potency": "inconclusive: 4.61 µM [rising, partial curve, poor fit]"},
      {"smiles": "COc1ccc(C(=O)NC(C)CCCC(C)(C)O)cc1OC1CCN(C(C)=O)CC1", "note": "(stereo not drawn)", "Potency": "inactive"},
      {"smiles": "O=C(Nc1ccc(S(=O)(=O)N2CCCCC2c2cccnc2)cc1)c1ccc(Br)cc1", "note": "(stereo not drawn)", "Potency": "inconclusive: 18.4 µM [cytotoxic, partial curve]"},
      {"smiles": "CCC1=Nc2cc(C(=O)NC3CCC(C)CC3)ccc2Sc2ccc(C)cc21", "note": "(stereo not drawn)", "Potency": "active: 4.61 µM"},
      {"smiles": "O=C(COC(=O)C12CC3CC(CC(Cl)(C3)C1)C2)Nc1ccc2[nH]c(=O)[nH]c2c1", "Potency": "inactive"},
      {"smiles": "CCC(C)(C)NC(=O)C(c1ccccc1Cl)N(C(=O)CCC(=O)Nc1cc(C)on1)c1ccc(NC(C)=O)cc1", "note": "(stereo not drawn)", "Potency": "inconclusive: 29.1 µM [rising, single point]"},
      {"smiles": "CCN1CCN(CCNC(=O)c2ccc3c(c2)N(Cc2cccc(Cl)c2)C(=O)c2ccccc2S3=O)CC1", "note": "(stereo not drawn)", "Potency": "inconclusive: 7.31 µM [cytotoxic, partial curve, poor fit]"},
      {"smiles": "Cc1ccc(-c2csc(NC(=O)C3=COCCO3)n2)cc1C", "Potency": "inconclusive: 16.4 µM [cytotoxic, single point]"},
      {"smiles": "Nc1nc(N2CCN(c3cccc(Cl)c3)CC2)n[nH]1", "Potency": "inconclusive: 16.4 µM [rising, partial curve]"},
      {"smiles": "Cc1cc(OCC(=O)Nc2ccncc2)ccc1[N+](=O)[O-]", "Potency": "inconclusive: 18.4 µM [cytotoxic, single point]"},
      {"smiles": "C=C1C(=O)[C@]23C[C@H]1CC[C@H]2[C@]1(C)[C@@H](O)CC[C@@](C)(C(=O)O)[C@H]1C[C@@H]3O", "Potency": "inactive"},
      {"smiles": "Fc1ccc(Br)cc1C1C=C(c2cccnc2)Nc2ncnn21", "note": "(stereo not drawn)", "Potency": "inconclusive: 29.1 µM [cytotoxic, single point]"},
      {"smiles": "CCN(CC)S(=O)(=O)c1cccc(C(=O)NCC2CCCCC2)c1", "Potency": "inconclusive: 18.4 µM [cytotoxic, single point]"},
      {"smiles": "CCc1ccc(NC(=O)CCn2c(=O)c3cccn3c3ccccc32)cc1", "Potency": "inconclusive: 29.1 µM [cytotoxic, single point]"},
      {"smiles": "O=C(c1ccco1)N1CCCC(N2CCN(c3cccc(C(F)(F)F)c3)CC2)C1", "note": "(stereo not drawn)", "Potency": "inconclusive: 29.1 µM [cytotoxic, single point]"},
      {"smiles": "COc1ccc(NC(=O)CSc2ccc3nc(-c4ccccc4)cn3n2)c(OC)c1", "Potency": "inconclusive: 20.6 µM [cytotoxic, single point]"}
    ]}
  ]
}
